PubChem BioAssay AID1259405 | NCATS – 2018
The deposit covers about 50,000 reagents; this is a random part of them. Over the whole deposit, about 4,000 (8%) got an active call. 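Mouse siRNA library applied to hamster cells; one well for each siRNA.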 A number with no mark means an inactive call. Reagents against one gene are numbered here. Reagent sequences are not shown.

Aim: 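Silenced genes that increase secreted GFP made by CHO cells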 (primary screen)
Cells: Chinese hamster CHO-K1 ovary cells with stable secreted eGFP expression
Reagent: single siRNA against mouse genes, 0.8 pmol siRNA per well (2 µl of 400 nM stock)
Timing: 3 days
Measurement: 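Percent of the per-plate non-targeting control median for intracellular GFP per well by laser scanning cytometry and for cell viability by ATP luminescence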
Direction: GFP, % of control: higher = more GFP per well, higher productivity; viability (ATP), % of control: higher = more viable cells (more ATP)
Call rule: 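a knock-down is called active if GFP reaches 120% or more of non-targeting control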

gene | reagent no. | GFP, % of control | viability (ATP), % of control
Mt2 (metallothionein 2) | 1 | 66 | 76
Mt2 (metallothionein 2) | 2 | 88.3 | 60.9
Mt2 (metallothionein 2) | 3 | 64 | 79.4
Lmo1 (LIM domain only 1) | 1 | 38.9 | 44.7
Lmo1 (LIM domain only 1) | 2 | 46.6 | 65.6
Lmo1 (LIM domain only 1) | 3 | 90.9 | 67.7
Sall4 (spalt like transcription factor 4) | 1 | 87.1 | 74.5
Sall4 (spalt like transcription factor 4) | 2 | 86.2 | 67.6
Sall4 (spalt like transcription factor 4) | 3 | 99.8 | 94.7
Usp15 (ubiquitin specific peptidase 15) | 1 | 86.9 | 93.4
Usp15 (ubiquitin specific peptidase 15) | 2 | 46.5 | 66.9
Usp15 (ubiquitin specific peptidase 15) | 3 | 104 | 70
4933440M02Rik (RIKEN cDNA 4933440M02 gene) | 1 | 106 | 75.5
4933440M02Rik (RIKEN cDNA 4933440M02 gene) | 2 | 101 | 109
4933440M02Rik (RIKEN cDNA 4933440M02 gene) | 3 | 78.6 | 102
Kdelr3 | 1 | 93.5 | 99.2
Kdelr3 | 2 | 78 | 55.5
Jup (junction plakoglobin) | 1 | 141 (active) | 112
Jup (junction plakoglobin) | 2 | 87.9 | 98.2
Jup (junction plakoglobin) | 3 | 94.2 | 101
Rilp (Rab interacting lysosomal protein) | 1 | 133 (active) | 92.8
Rilp (Rab interacting lysosomal protein) | 2 | 56.6 | 75.6
Zfp236 (zinc finger protein 236) | 1 | 48.6 | 58.2
Zfp236 (zinc finger protein 236) | 2 | 84.2 | 82.5
Zfp236 (zinc finger protein 236) | 3 | 69.5 | 64.1
Trpv3 | 1 | 75.6 | 86.4
Trpv3 | 2 | 76.7 | 92.4
Trpv3 | 3 | 54.2 | 77.6
Zfp646 (zinc finger protein 646) | 1 | 126 (active) | 67.1
Zfp646 (zinc finger protein 646) | 2 | 98.6 | 73.5
Gna15 (guanine nucleotide binding protein, alpha 15) | 1 | 116 | 93.4
Gna15 (guanine nucleotide binding protein, alpha 15) | 2 | 69.2 | 51.4
Gna15 (guanine nucleotide binding protein, alpha 15) | 3 | 80.5 | 75.7
Kcnip1 (Kv channel-interacting protein 1) | 1 | 62.4 | 69.6
Kcnip1 (Kv channel-interacting protein 1) | 2 | 54.9 | 57.1
Kcnip1 (Kv channel-interacting protein 1) | 3 | 94.9 | 64

Records listed so far whose gene name starts with R or r:
gene | reagent no. | GFP, % of control | viability (ATP), % of control
Rilp (Rab interacting lysosomal protein) | 1 | 133 (active) | 92.8
Rilp (Rab interacting lysosomal protein) | 2 | 56.6 | 75.6
